Out of some 340,000 compounds screened, about 170 (0.05%) were called active. The inconclusive results got no clear call from the source; some entries with a clear call stand among them for comparison. The call rests on the fitted dose curve; in most records, active means well fitted inhibition curve with a large enough effect in the signal ratio, with a control signal flat (not every such curve was filed as active); inconclusive means small, poorly fitted or top-dose-only effect, or effect the other way, or a change in a side signal; inactive means flat fitted curve, though single readings scatter; the % refers to the signal ratio. Potencies of inconclusive entries are doubtful fits and often do not repeat.
Experiment: qHTS Assay to Find Inhibitors of Chronic Active B-Cell Receptor Signaling;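 on activity change, negative = inhibition: plate controls were basal doxycycline-induced cells for no effect and cells given 10 µM MG132 for full effect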
Settings: ABC-DLBCL IkBa-CBG/CBR reporter, luminescence ratio (green luciferase fused to IkBa over red control in TMD8 lymphoma cells), 4 h; activity change, negative = inhibition: at 46.1 µM (top of the series) unless noted
How it was run: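 Cell line TMD8 (human ABC DLBCL), stably expressing tet-inducible CBG68-IkBa fusion and CBR; IMDM/0.5% FBS; cpd up to 46 uM; dox induction, 4 h, 37C/5% CO2; dual luminescence; green/red ratio; MG132 control.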
In the case of COc1cc(C(=O)Nc2c(-c3ccccn3)c(=O)c3ccccc3n2C)cc(OC)c1OC, the activity change, negative = inhibition is reported as inconclusive: 3.33%.
In the case of CCOC(=O)COn1c2c(c3c4no[n+]([O-])c4ccc31)CCCC2, the activity change, negative = inhibition is reported as inconclusive: 16.9%.
With COc1ccc(C(=O)NCC(=O)N2CCc3ccccc3C2)cc1 the activity change, negative = inhibition was inconclusive: 2.36%.
With COc1cccc(C(=O)Nc2ccc(C(=O)O)cc2)c1 the Potency was inconclusive: 11.2 µM [falling, single point].
In the case of COCCNC(=O)c1c(CS(=O)(=O)c2ccccc2)noc1C(=O)NCc1ccccc1, the “activity change, negative = inhibition” value is reported as inactive: -5.12%.
In the case of Cc1cc(NS(=O)(=O)c2ccc(NC(=S)NC(=O)c3ccc(C(C)(C)C)cc3)cc2)no1, the “activity change, negative = inhibition” value is reported as inactive: 0.382%.
For O=C(CSc1nnc(-c2ccccc2)o1)N1CCc2ccccc2C1, the Potency was inconclusive: 7.31 µM [rising, partial curve, poor fit].
For N#C/C(=C\c1ccc(C(=O)O)cc1)c1nc2sc3c(c2c(=O)[nH]1)CCCC3, the Potency was inconclusive: 22.4 µM [falling, partial curve].
In the case of COc1ccc(CCNC(=O)CSc2nc3[nH]ncc3c(=O)n2-c2ccc(C)c(Cl)c2)cc1OC, the activity change, negative = inhibition is reported as inconclusive: 1.4%.
In the case of CC1=C(C(=O)Nc2ccc(C(=O)NC(C)c3ccccc3)cc2)SCCO1 (stereo unspecified), the activity change, negative = inhibition is reported as inconclusive: -19.6%.
With COc1ccc(CCNc2oc(COc3ccccc3F)nc2C#N)cc1OC the “activity change, negative = inhibition” value was inactive: -3.33%.
With N#Cc1nc(COc2cccc(Cl)c2)oc1NCc1ccncc1 the Potency was inconclusive: 3.55 µM [falling, full curve].
For COc1cc(CC(=O)NCC2COc3ccccc3O2)cc(OC)c1OC (stereo unspecified), the activity change, negative = inhibition was inconclusive: 2.28%.
For CC(C)(C)N(NC(=O)Nc1ccccc1)C(=O)c1ccccc1, the “activity change, negative = inhibition” value was inactive: 2.51%.
For CC(=O)Nc1ccc(S(=O)(=O)NCCS(=O)(=O)N2CCN(c3ccccc3F)CC2)cc1, the activity change, negative = inhibition was inconclusive: 0.381%.
For COc1ccc(/C=C/C(=O)c2ccc(Cl)s2)cc1O, the Potency was inconclusive: 1.46 µM [rising, partial curve, poor fit].
In the case of COc1ccc(Cl)cc1NC(=O)CN(C)C(=O)c1cc2c(s1)CCCC2, the “activity change, negative = inhibition” value is reported as inactive: -15.8%.
With COc1ccc2nc(NC(=O)c3cc(S(=O)(=O)N4CCOCC4)ccc3C)sc2c1 the Potency was inconclusive: 2.06 µM [falling, full curve].
In the case of CC(=O)c1ccc(N=Nc2ccc(C)cc2)cc1, the activity change, negative = inhibition is reported as inconclusive: 17.2%.
For O=C(Cc1cccc(C(F)(F)F)c1)Nc1cc(S(=O)(=O)N2CCOCC2)ccc1N1CCCC1, the “activity change, negative = inhibition” value was inactive: -5.6%.
In the case of CCCCNS(=O)(=O)NC(=O)C1=C(N2CCCC2)COC1=O, the “activity change, negative = inhibition” value is reported as inactive: 0.231%.
For COc1cc(COCC(O)CN2CCCCC2C)cc(OC)c1OC (stereo unspecified), the activity change, negative = inhibition was inconclusive: -0.674%.
In the case of Cc1ccc2c(CC(=O)NCc3cccs3)coc2c1, the Potency is reported as inconclusive: 16.4 µM [falling, partial curve, poor fit].
In the case of Brc1cc2c(cc1Br)OCCOCCOCCO2, the “activity change, negative = inhibition” value is reported as inactive: -9.52%.
In the case of CC(C1CC2CCC1C2)N1CC(O)=C(c2nc3ccccc3[nH]2)C1=N (stereo unspecified), the “activity change, negative = inhibition” value is reported as inactive: -0.0455%.
In the case of CCC(Sc1ccccn1)C(=O)Nc1nnc(C)s1 (stereo unspecified), the “activity change, negative = inhibition” value is reported as inactive: 1.8%.
In the case of CNC(=S)N1N=C(c2ccc(OC)cc2)CC1c1ccc(N(C)C)cc1 (stereo unspecified), the “activity change, negative = inhibition” value is reported as inactive: 2.73%.
In the case of Cc1cccc(N(Cc2cc(=O)[nH]c3ccccc23)C(=O)CCl)c1, the Potency is reported as inconclusive: 22.4 µM [falling, single point].
In the case of CC(NC(=O)c1ccccc1NS(=O)(=O)c1ccc(CCC(=O)O)cc1)c1ccccc1 (stereo unspecified), the activity change, negative = inhibition is reported as inconclusive: -1.59%.
For Cn1c(=O)n(Cc2ccccc2F)c(=O)c2c1nc1n2CCN1Cc1ccco1, the activity change, negative = inhibition was inconclusive: 7.43%.
For CCCCCCCSc1nsc(N)n1, the activity change, negative = inhibition was inconclusive: 16.1%.
With O=C(NNc1c2ccccc2nc2ccccc12)c1cc2ccccc2cc1O the activity change, negative = inhibition was inconclusive: 7.3%.
For CCc1noc(C)c1C(=O)Nc1cc(S(=O)(=O)N2CCOCC2)ccc1OC(C)C, the activity change, negative = inhibition was inconclusive: -1.66%.
For COc1ccc2c(c1OC)C(=O)NC(C)=C(C(=O)OC(C)(C)C)C2O (stereo unspecified), the activity change, negative = inhibition was inconclusive: -8.74%.
In the case of OCCCNc1cc(-c2ccnc(Nc3cccc(Cl)c3)n2)ccn1, the activity change, negative = inhibition is reported as inconclusive: 13.1%.
With Cn1c(=O)n(C)c2cc([N+](=O)[O-])c(N3CCN(S(C)(=O)=O)CC3)cc21 the activity change, negative = inhibition was inconclusive: 1.71%.
In the case of CCOc1ccccc1N1CCN(C(=O)c2cc[n+]([O-])cc2)CC1, the “activity change, negative = inhibition” value is reported as inactive: -4.39%.
With COc1ccccc1CCNS(=O)(=O)c1cc2c3c(c1)CCN3C(=O)CC2 the “activity change, negative = inhibition” value was inactive: 0.143%.
For C[C@]12C(=O)N(c3ccc(C(F)(F)F)cc3)C(=O)N1[C@@H]1c3ccccc3OC[C@@H]1[C@H]2c1ccccc1, the “activity change, negative = inhibition” value was inactive: 17.8%.
For Cc1cc(OCCCCN2C(=O)NC(C)(C)C2=O)cc(C)c1Cl, the Potency was inconclusive: 7.31 µM [falling, partial curve, poor fit].
With COc1ccc(NC(=O)/C(C#N)=C\c2ccc(OCc3ccc(C(=O)O)cc3)c(OC)c2)cc1 the Potency was inconclusive: 2.82 µM [falling, full curve].
In the case of O=C(COc1ccccc1Cl)NNC(=O)Cn1[nH]c(=O)c2ccccc2c1=O, the activity change, negative = inhibition is reported as inconclusive: 9.32%.
For CC(=O)C1=C(O)C(=O)N(c2ccc(Br)cn2)C1c1ccc(F)cc1 (stereo unspecified), the activity change, negative = inhibition was inconclusive: -9.14%.
With O=C(OCc1cc(=O)n2c(n1)sc1ccccc12)c1ccc(O)cc1O the activity change, negative = inhibition was inconclusive: 0.0177%.
In the case of Cc1ccc(F)c(NC=C2C(=O)OC(C)(C)OC2=O)c1, the activity change, negative = inhibition is reported as inconclusive: 0.668%.
In the case of CSCCC(NC(=O)c1ccc(C(C)(C)C)cc1)C(=O)O (stereo unspecified), the activity change, negative = inhibition is reported as inconclusive: 1%.
In the case of Cc1ccc(S(=O)(=O)N2CCC(=O)N(C(COCc3ccc(Cl)c(Cl)c3)Cc3ccccc3)CC2)cc1 (stereo unspecified), the “activity change, negative = inhibition” value is reported as inactive: 2.58%.
In the case of Cc1cc(C(=O)N/N=C/c2cc(Cl)cc([N+](=O)[O-])c2O)n[nH]1, the activity change, negative = inhibition is reported as inconclusive: 0.116%.
For O=C(COC(=O)c1ccc(Br)o1)Nc1ccc2c(c1)OCCO2, the activity change, negative = inhibition was inconclusive: 2.14%.
With COc1ccc(CN=Cc2[nH]c3ccc(Br)c(Cl)c3c2O)cc1 the “activity change, negative = inhibition” value was inactive: 7.61%.
With O=c1[nH]c(C2CCN(S(=O)(=O)c3ccccc3C(F)(F)F)CC2)nc2c1nnn2Cc1cccc(F)c1 the activity change, negative = inhibition was inconclusive: -23.8%.
In the case of COc1ccc(CCNC2CC(=O)N(CCc3ccc(OC)c(OC)c3)C2=O)cc1OC (stereo unspecified), the activity change, negative = inhibition is reported as inconclusive: -12%.
In the case of O=C(NCCc1ccccc1)Nc1ccc2c(c1)OCO2, the activity change, negative = inhibition is reported as inconclusive: 2.92%.
For N#C/C(=C\c1ccc(N2CCOCC2)o1)c1nc2ccccc2[nH]1, the Potency was inconclusive: 35.5 µM [falling, single point].
In the case of CC(=O)c1ccc(OCCCC(=O)NC2CCCc3ccccc32)cc1 (stereo unspecified), the activity change, negative = inhibition is reported as inconclusive: 2.74%.
In the case of Clc1ccc(-c2nnc(C3CC3)o2)cc1, the activity change, negative = inhibition is reported as inconclusive: 9.08%.
With O=C(CNC(=O)c1ccccc1)NCCc1ccc(O)c(O)c1 the Potency was inconclusive: 14.1 µM [falling, single point].
For CSCC[C@H](NC(=O)[C@@H]1Cc2ccccc2CN1)C(=O)Nc1ccc2c(c1)OCCO2, the Potency was inconclusive: 22.4 µM [falling, single point].
For COc1cccc(OC)c1CN1CCCC(C(=O)c2ccccc2SC)C1 (stereo unspecified), the Potency was inconclusive: 22.4 µM [falling, single point].
In the case of CC1(C)CC(NC(=O)c2ccccc2F)CC(C)(C)N1, the activity change, negative = inhibition is reported as inconclusive: -0.498%.
With C=CCn1c(=O)c(C(=O)Nc2ccccc2C(=O)OCC)c(O)c2ccccc21 the activity change, negative = inhibition was inconclusive: 5.31%.
With CCCCCCC(C)OC(=O)Nc1cccc2ccccc12 (stereo unspecified) the activity change, negative = inhibition was inconclusive: -8.95%.
With COCCn1c(SC(C)C(=O)Nc2ccc3c(c2)OCCO3)nc2ccccc2c1=O (stereo unspecified) the activity change, negative = inhibition was inconclusive: 5.68%.
In the case of CCN(CC)CC(=O)Nc1ccc2c(c1)N(C(=O)CN(CC)CC)c1ccccc1CC2, the Potency is reported as inconclusive: 23.1 µM [falling, partial curve, poor fit].
For Cc1ccc(-c2cn3c(=O)cc(C)[nH]c3n2)cc1, the activity change, negative = inhibition was inconclusive: -22.2%.
With Cc1cc(Nc2ccc([N+](=O)[O-])cc2)c2ccccc2n1 the “activity change, negative = inhibition” value was inactive: -15.4%.
For O=C(C1=C[C@@H]2[C@H]3C(=O)N(c4ccccc4)C(=O)[C@H]3[C@@H](C(=O)c3ccc(Cl)cc3)N2C=C1)c1ccccc1, the activity change, negative = inhibition was inconclusive: -13.9%.
With CC(C)C(=O)Nc1c(C(=O)N2CCN(c3ncccn3)CC2)oc2ccccc12 the “activity change, negative = inhibition” value was inactive: 12.2%.
In the case of CCOc1ncccc1C(=O)OCc1csc(CC(=O)Nc2ccccc2C)n1, the “activity change, negative = inhibition” value is reported as inactive: -0.975%.
With Cc1ccc(NC(=O)c2cc3c(s2)CCCC3)cc1S(=O)(=O)Nc1ccccc1Cl the Potency was inconclusive: 13 µM [falling, partial curve].
With COc1ccc(C(=O)NCC(=O)N/N=C/C(C)=C/c2ccco2)cc1OC the activity change, negative = inhibition was inconclusive: 0.029%.
In the case of O=C1N/C(=C\c2ccc(N3CCOCC3)c(F)c2)C(=O)N1Cc1ccccc1, the “activity change, negative = inhibition” value is reported as inactive: 2.56%.
With O=C(CO/N=C/c1ccc(Cl)cc1Cl)NNC(=O)c1cccc(Cl)c1 the activity change, negative = inhibition was inconclusive: 9.86%.
With CC(=O)Nc1ccc(NC(=O)C2CC(=O)N(c3ccc(Cl)cc3)C2)cc1 (stereo unspecified) the “activity change, negative = inhibition” value was inactive: 0.282%.
In the case of COc1ccc(N(CC(=O)Nc2ccc(F)c(F)c2)S(=O)(=O)c2c(C)n[nH]c2C)cc1, the activity change, negative = inhibition is reported as inconclusive: 4.05%.
For O=C(Nc1ccccc1)/C(=C/c1cccc(Br)c1)NC(=O)c1ccco1, the activity change, negative = inhibition was inconclusive: 23.5%.
For Cc1ccc2cc(NC(=O)Cc3ccccc3)ccc2n1, the activity change, negative = inhibition was inconclusive: 25%.
With Cc1cccc(C(=O)NNC(=O)c2ccccc2)c1 the Potency was inconclusive: 23.1 µM [falling, single point].
With O=C(Nc1ncn[nH]1)c1ccccc1O the Potency was inconclusive: 35.5 µM [falling, single point].
In the case of COc1cccc(-c2cc3nc(-c4ccccc4)cc(=O)n3[nH]2)c1, the Potency is reported as inconclusive: 4.47 µM [cytotoxic, full curve, poor fit].
For COc1cccc(-c2cc(C(=O)NC3CCCC3)no2)c1, the Potency was inconclusive: 4.61 µM [falling, partial curve].
Potency means the concentration at half of the fitted maximal effect.
